The values below come from PubChem BioAssay AID2685 (National Center for Advancing Translational Sciences (NCATS), 2010).

As a reminder, the AC50 is the concentration giving half of the maximal activity seen. A lower AC50 goes with greater potency.

A short description of the assay: qHTS Assay for Lipid Storage Modulators in Drosophila S3 Cells.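 As to cell number change: cells counted by Cell Tracker Red CMTPX staining in the red channel.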 Conditions: BODIPY lipid droplet fluorescence, 18-24 h; for cell number change: measured here: cell count max response, cells fed with added oleic acid. The gist of the method: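 Drosophila S3 cells got compounds at several concentrations plus oleic acid (400 uM solution). Laser-scanning cytometry with 488 nm excitation read lipid droplets at 500-530 nm and cells at 575-640 nm. Percent activity was relative to 20 uM Triacsin C.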

Where [1] appears, read: measured here: cell number channel AC50, cells fed with added oleic acid.
[2] abbreviates: measured here: lipid fluorescence (Fed channel) AC50, cells fed with added oleic acid.

The list shows a part of the results. Further columns of the screen follow, without active or inactive calls. Most of these compounds were active or inconclusive in the main read-out, so they are no random draw. The note in brackets gives the kind of curve behind each potency; many fits are weak.

Consider `COc1ccc(C(=O)NC2CCCc3c2cnn3-c2ccc(C)c(C)c2)c(OC)c1OC` (centres undefined), for which the cell number change is -45.8%. Moreover, under setting [1], the AC50 is 9.2 µM [falling, partial curve].
In the case of `CSc1nsc(/C=C/Nc2cccc(Cl)c2)c1C#N`, the cell number change stood at 80.5%. In addition, the AC50 under setting [1] is 23.1 µM [rising, single point]. In addition, the concentration at half-maximal activity (AC50) under setting [2] was 0.651 µM [rising, full curve, poor fit].
Consider `O=C(Cc1ccc(Br)cc1)NNC(=O)Nc1ccc(Cl)cc1`, for which the cell number change amounted to 118%. Moreover, the concentration at half-maximal activity (AC50) under setting [1] is 18.4 µM [rising, partial curve]. The half-maximal activity concentration (AC50) under setting [2] is 29.1 µM [rising, single point].
Regarding `CC1CN(C(=O)COC(=O)c2ccc(S(=O)(=O)N(C)C)cc2)CC(C)O1` (centres undefined), the cell number change was -13.3%.
Regarding `NS(=O)(=O)c1cc(C(=O)OCC(=O)N2CCOCC2)ccc1Cl`, the cell number change came to 6.76%. In addition, the AC50 under setting [2] was 0.58 µM [falling, single point].
Turning to `CC1CC(C)CN(C(=O)COC(=O)c2c[nH]c3ccccc23)C1` (centres undefined), under setting [2], the AC50 was 1.3 µM [falling, full curve].
Take `COc1ccc(C(=O)NC(=S)NCc2cccnc2)cc1Br`: the cell number change is -5.37%. The AC50 under setting [2] is 0.708 µM [falling, partial curve, poor fit].
On to `COc1ccc2nc(SCC(=O)Nc3c(C)cccc3C)[nH]c2c1`, for which the cell number change turned out to be 10.8%. Moreover, under setting [1], the AC50 was 6.51 µM [rising, single point].
`Cc1cccc(NC(=O)c2cc(S(=O)(=O)N3CCc4ccccc43)cn2C)c1C`: the cell number change was 72.9%. Under setting [1], the AC50 is 29.1 µM [rising, single point].
In the case of `S=C1NC(c2ccccc2)N2C(=S)NC(c3ccccc3)N12` (centres undefined), the cell number change is -1.65%.
As to `CCCCCCc1nc(C(N)=O)c2[nH]c(=O)n(-c3ccc(OCC)cc3)c2n1`, the AC50 under setting [2] is 6.51 µM [falling, single point].
Regarding `COc1cccc(C(=O)NCCCNC(=O)c2cccnc2)c1`, the cell number change worked out at 12.8%. Under setting [2], the concentration at half-maximal activity (AC50) is 6.51 µM [rising, single point].
`Cn1c(=O)c2c(nc(N/N=C/c3cccs3)n2Cc2ccc(Br)cc2)n(C)c1=O`: the AC50 runs as follows: under setting [1], 4.11 µM [rising, partial curve]; under setting [2], 7.31 µM [rising, single point].
For the compound `Cc1c(C(=O)NC(C)CN2CCCCC2)oc2ccccc12` (centres undefined), the cell number change is -6.05%. Besides, under setting [2], the AC50 is 29.1 µM [falling, single point].
In the case of `CC(C)CCNC(=O)c1ccc2c(SCC(=O)O)c3c(nc2c1)CCCC3`, the cell number change is -31.4%. Further, under setting [1], the AC50 is 32.6 µM [falling, single point]. Moreover, the AC50 under setting [2] was 29.1 µM [falling, single point].
Turning to `Cc1cc(C)nc(SCNC(=O)c2ccc(F)cc2)n1`, the cell number change was -0.891%.
In the case of `O=[N+]([O-])c1ccccc1Oc1ccc(C(F)(F)F)cn1`, the cell number change amounted to 10.5%. For the same compound, the AC50 under setting [2] was 0.731 µM [falling, full curve, poor fit].
With `CN(CC(=O)Nc1ccccc1Cl)C(=O)COC(=O)Cc1c(F)cccc1Cl`, the cell number change came out at 75.7%. Further, the AC50 under setting [1] is 29.1 µM [rising, single point]. The AC50 under setting [2] is 3.26 µM [falling, partial curve, poor fit].
On to `COCCN1CC(=O)N(c2cccc(C)c2C)C(c2ccc(Cl)cc2)C1=O` (centres undefined), for which the cell number change came out at 5.75%. For the same compound, under setting [2], the AC50 is 0.13 µM [falling, full curve].
In the case of `CNS(=O)(=O)c1cccc(C(=O)NCC2(N3CCCCC3)CCCCC2)c1`, the cell number change worked out at 30.8%.
`Cc1ccc(NC(=O)COc2ccccc2C(=O)NCCN(C)C)cc1`: under setting [2], the AC50 is 6.51 µM [falling, single point].
`CCOc1ccc(C2=NNC(c3cccs3)=Nc3ccc(OC)cc32)cc1OCC`: the cell number change is -30.9%. Besides, the AC50 under setting [1] was 29.1 µM [falling, single point]. Also, the AC50 under setting [2] is 29.1 µM [falling, single point].
Regarding `Cc1cccc2sc(NC(=O)c3cccc(S(=O)(=O)N4CCc5ccccc54)c3)nc12`, the cell number change came out at 18.5%. The AC50 under setting [1] was 0.0517 µM [rising, full curve, poor fit]. In addition, the AC50 under setting [2] was 18.4 µM [rising, single point].
On to `CC(C)c1nnc(NC(=O)CCC(=O)NC2CCCCCCC2)s1`, for which the cell number change is -33.2%. Besides, under setting [1], the AC50 was 1.84 µM [falling, partial curve].
As for `CC(C)(C)c1ccc(-c2noc(-c3ccc4c(c3)CCO4)n2)cc1`, the cell number change worked out at 5.3%. The concentration at half-maximal activity (AC50) under setting [2] is 20.6 µM [rising, partial curve].
`Cc1ccc(C)c(NC(=O)C(CC(=O)O)Cc2ccccc2)c1` (centres undefined): the cell number change was -2.36%. Further, the AC50 under setting [2] was 29.1 µM [falling, single point].
Regarding `CCOC(=O)C1=C(C)NC(=O)NC1c1ccc(OC)c(CN2CCOCC2)c1` (centres undefined), the cell number change was -83.6%. Besides, the AC50 under setting [1] is 23.1 µM [falling, partial curve, poor fit]. For the same compound, the AC50 under setting [2] is 23.1 µM [falling, partial curve].
`CS(=O)(=O)N(CCC#N)Cc1ccc(/C=C2\C(=O)Nc3ccccc32)o1`: the cell number change was -40.3%. For the same compound, under setting [1], the half-maximal activity concentration (AC50) is 18.4 µM [falling, single point]. Further, the AC50 under setting [2] was 29.1 µM [falling, single point].
Take `C/C(=N\NC(=O)c1c[nH]c2ccccc12)c1ccco1`: the cell number change stood at 109%. Further, the AC50 under setting [1] was 29.1 µM [rising, single point]. The half-maximal activity concentration (AC50) under setting [2] was 6.51 µM [rising, single point].
On to `C=CCn1c(SCC(=O)Nc2c(C)n(C)n(-c3ccccc3)c2=O)nc2sc(C)c(-c3ccccc3)c2c1=O`, for which the cell number change is -12.6%.
`CN1CCN(c2ccc(NC(=O)c3ccc(Br)o3)cc2)CC1`: the cell number change is 1.39%. Further, the AC50 under setting [2] is 0.13 µM [rising, full curve, poor fit].
`Cc1cc(Br)ccc1NC(=O)CCN1C(=O)c2ccncc2C1=O`: the AC50 was 1.64 µM [rising, partial curve] under setting [1] and 1.16 µM [rising, partial curve] under setting [2].
With `N#Cc1ccc(-c2ccc(C3Nc4ccccc4C(=O)N3O)o2)cc1` (centres undefined), the cell number change is -0.226%.
Consider `CCOC(=O)CCc1c(C)c(C#N)c2[nH]c3ccccc3n2c1=O`, for which the cell number change was -11%. Besides, the AC50 under setting [2] was 0.103 µM [rising, full curve, poor fit].
Consider `NC(=O)Cn1cc(/C=N/NC(=O)c2ccc(Cn3cc(Cl)cn3)o2)c(-c2ccccc2)n1`, for which the cell number change is -14.2%. The AC50 under setting [2] is 29.1 µM [rising, single point].
With `COc1cc(-c2noc(C3CCCN(C(=O)c4ccccc4)C3)n2)cc(OC)c1OC` (centres undefined), the cell number change was -24.9%. Also, under setting [2], the half-maximal activity concentration (AC50) is 25.9 µM [falling, single point].
For `C=CCNC(=S)NS(=O)(=O)c1cccs1`, the cell number change was determined as 19.8%. Moreover, under setting [2], the AC50 was 0.731 µM [rising, single point].
